Results on three molecules are retold here after article PMC9709245, “The stem region of α1,6-fucosyltransferase FUT8 is required for multimer formation but not catalytic activity” (The Journal of Biological Chemistry, 2022).

No constants are given. Whether binding was seen depends on the method and setting. In cells and extracts the contact can be indirect. Some results given as binding are weak or reduced against the parent protein; the word gives no strength.

Test [1] concerns the target T1, alpha-1,6-fucosyltransferase FUT8 WT (human, UniProt Q9BYC5 1-575).
T1 construct: No chain bears both Myc and 3xFLAG; also called Myc-FUT8; Myc-tagged FUT8; source: HEK293 FUT8KO, transfected, in lysate; not shown: Myc (copy from pcDNA6-mycHisA), C-terminal, kept; His tag (from the vector pcDNA6-mycHisA); 3xFLAG (other copy; from pME-3xFLAG), C-terminal, kept
T1 sequence (looked up): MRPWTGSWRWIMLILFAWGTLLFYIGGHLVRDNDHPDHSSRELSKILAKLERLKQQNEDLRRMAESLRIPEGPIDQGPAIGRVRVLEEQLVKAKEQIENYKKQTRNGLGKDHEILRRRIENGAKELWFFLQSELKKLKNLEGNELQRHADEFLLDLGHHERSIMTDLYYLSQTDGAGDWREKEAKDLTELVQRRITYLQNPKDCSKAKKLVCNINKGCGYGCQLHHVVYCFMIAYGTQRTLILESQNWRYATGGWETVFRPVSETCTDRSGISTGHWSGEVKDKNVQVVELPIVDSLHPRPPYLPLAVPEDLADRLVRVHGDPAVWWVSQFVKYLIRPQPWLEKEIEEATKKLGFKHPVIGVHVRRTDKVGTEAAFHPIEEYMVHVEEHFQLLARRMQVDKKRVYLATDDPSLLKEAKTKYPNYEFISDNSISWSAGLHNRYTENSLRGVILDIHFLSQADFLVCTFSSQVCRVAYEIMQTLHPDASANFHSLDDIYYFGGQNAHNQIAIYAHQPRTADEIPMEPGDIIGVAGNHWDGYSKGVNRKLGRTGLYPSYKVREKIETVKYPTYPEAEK
The test can be described thus: co-IP; lysates (TBS, 1% Triton X-100) of HEK293 FUT8KO cells coexpressing Myc-tagged FUT8 WT or mutant with 3xFLAG-FUT8 WT; anti-DYKDDDDK antibody magnetic beads, 4 °C overnight; anti-Myc blot; IP signal divided by input, relative to FUT8 WT.

A further test deals with FUT8Δstem-GSx22 (human) (UniProt Q9BYC5). The test can be described thus: co-IP; lysates (TBS, 1% Triton X-100) of HEK293 FUT8KO cells expressing Myc-tagged FUT8 WT or mutant; anti-Myc antibody and Dynabeads protein G, 4 °C overnight; blot with anti-RPN1 (endogenous RPN1).
For a further test, the target named is FUT8Δstem-GSx40 (human) (UniProt Q9BYC5). The test is described as above.
Test [2] addresses T1, alpha-1,6-fucosyltransferase FUT8 WT. Described as above.

B1: alpha-1,6-fucosyltransferase FUT8 WT (enzyme, UniProt Q9BYC5 1-575)
chain: MRPWTGSWRWIMLILFAWGTLLFYIGGHLVRDNDHPDHSSRELSKILAKLERLKQQNEDLRRMAESLRIPEGPIDQGPAIGRVRVLEEQLVKAKEQIENYKKQTRNGLGKDHEILRRRIENGAKELWFFLQSELKKLKNLEGNELQRHADEFLLDLGHHERSIMTDLYYLSQTDGAGDWREKEAKDLTELVQRRITYLQNPKDCSKAKKLVCNINKGCGYGCQLHHVVYCFMIAYGTQRTLILESQNWRYATGGWETVFRPVSETCTDRSGISTGHWSGEVKDKNVQVVELPIVDSLHPRPPYLPLAVPEDLADRLVRVHGDPAVWWVSQFVKYLIRPQPWLEKEIEEATKKLGFKHPVIGVHVRRTDKVGTEAAFHPIEEYMVHVEEHFQLLARRMQVDKKRVYLATDDPSLLKEAKTKYPNYEFISDNSISWSAGLHNRYTENSLRGVILDIHFLSQADFLVCTFSSQVCRVAYEIMQTLHPDASANFHSLDDIYYFGGQNAHNQIAIYAHQPRTADEIPMEPGDIIGVAGNHWDGYSKGVNRKLGRTGLYPSYKVREKIETVKYPTYPEAEK
Regarding B1, the binding entry in test [1] is on record as “binds”.

B2: FUT8Δcoiled-coil (enzyme, UniProt Q9BYC5 1-108; Q9BYC5 174-575)
chain: MRPWTGSWRWIMLILFAWGTLLFYIGGHLVRDNDHPDHSSRELSKILAKLERLKQQNEDLRRMAESLRIPEGPIDQGPAIGRVRVLEEQLVKAKEQIENYKKQTRNGLGSGSDGAGDWREKEAKDLTELVQRRITYLQNPKDCSKAKKLVCNINKGCGYGCQLHHVVYCFMIAYGTQRTLILESQNWRYATGGWETVFRPVSETCTDRSGISTGHWSGEVKDKNVQVVELPIVDSLHPRPPYLPLAVPEDLADRLVRVHGDPAVWWVSQFVKYLIRPQPWLEKEIEEATKKLGFKHPVIGVHVRRTDKVGTEAAFHPIEEYMVHVEEHFQLLARRMQVDKKRVYLATDDPSLLKEAKTKYPNYEFISDNSISWSAGLHNRYTENSLRGVILDIHFLSQADFLVCTFSSQVCRVAYEIMQTLHPDASANFHSLDDIYYFGGQNAHNQIAIYAHQPRTADEIPMEPGDIIGVAGNHWDGYSKGVNRKLGRTGLYPSYKVREKIETVKYPTYPEAEK
For B2, the binding result in test [1] is “binds”.

B3: ribophorin I (RPN1) (protein, UniProt P04843 24-607)
chain: ASSEAPPLINEDVKRTVDLSSHLAKVTAEVVLAHLGGGSTSRATSFLLALEPELEARLAHLGVQVKGEDEEENNLEVRETKIKGKSGRFFTVKLPVALDPGAKISVIVETVYTHVLHPYPTQITQSEKQFVVFEGNHYFYSPYPTKTQTMRVKLASRNVESYTKLGNPTRSEDLLDYGPFRDVPAYSQDTFKVHYENNSPFLTITSMTRVIEVSHWGNIAVEENVDLKHTGAVLKGPFSRYDYQRQPDSGISSIRSFKTILPAAAQDVYYRDEIGNVSTSHLLILDDSVEMEIRPRFPLFGGWKTHYIVGYNLPSYEYLYNLGDQYALKMRFVDHVFDEQVIDSLTVKIILPEGAKNIEIDSPYEISRAPDELHYTYLDTFGRPVIVAYKKNLVEQHIQDIVVHYTFNKVLMLQEPLLVVAAFYILFFTVIIYVRLDFSITKDPAAEARMKVACITEQVLTLVNKRIGLYRHFDETVNRYKQSRDISTLNSGKKSLETEHKALTSEIALLQSRLKTEGSDLCDRVSEMQKLDAQVKELVLKSAVEAERLVAGKLKKDTYIENEKLISGKRQELVTKIDHILDAL
With B3, the binding result with FUT8Δstem-GSx22 (human) is on record as “binds weakly”; in the test with FUT8Δstem-GSx40 (human) it was “binds weakly”; in test [2], “binds”.
